Source: patent CN113173994A
Results are given in words; binding and its absence hold for the method and conditions named. Some entries that bind do so weakly or less than the wild type.

How the values were obtained:
[1] = molecular target: T1, 重组AFP抗原(爱必信生物，货号Abt-P-208，GenbankID:174) (UniProt P02771); experiment: ELISA additivity test on coated AFP
T1 sequence (looked up): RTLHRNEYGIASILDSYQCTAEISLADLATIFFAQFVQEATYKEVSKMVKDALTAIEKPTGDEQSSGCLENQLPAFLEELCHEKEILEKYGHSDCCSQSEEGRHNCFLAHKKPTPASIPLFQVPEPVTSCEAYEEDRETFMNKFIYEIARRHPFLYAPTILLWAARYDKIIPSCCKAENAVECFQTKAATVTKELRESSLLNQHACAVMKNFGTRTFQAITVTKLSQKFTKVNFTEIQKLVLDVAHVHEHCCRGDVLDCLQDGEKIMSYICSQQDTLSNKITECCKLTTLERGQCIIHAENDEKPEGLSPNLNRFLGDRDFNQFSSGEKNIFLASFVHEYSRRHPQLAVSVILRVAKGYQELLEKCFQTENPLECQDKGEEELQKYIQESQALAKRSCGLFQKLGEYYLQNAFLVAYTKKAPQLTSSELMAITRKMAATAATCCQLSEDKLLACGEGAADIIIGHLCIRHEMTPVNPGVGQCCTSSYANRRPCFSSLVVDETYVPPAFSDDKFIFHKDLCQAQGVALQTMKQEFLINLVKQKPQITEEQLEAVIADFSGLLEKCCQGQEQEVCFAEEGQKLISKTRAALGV

[2] = molecular target: T1, 重组AFP抗原(爱必信生物，货号Abt-P-208，GenbankID:174); experiment: Biacore sequential injection on immobilised AFP

B1: 抗AFP纳米抗体1A7 (VHH)
VHH: QVQLQESGGGLVQAGGSLRLSCAASESIFSFAAMGWYRQAPGKQRELVARITGGDNINYADSVKGRFTISKDNAKNTVYLQMNSLKPEDTAVYYCNGEGYGSSWFDDGKNYWGKGTQVTVSS
binding [1]: binds
binding [2]: binds

B2: 纳米抗体2F5 (VHH)
VHH: QVQLQESGGGVVQAGGSLRLTCAASESIFSFAAMGWYRQAPGKQRELVARITGGDNINYADSVKGRFTISKDNAKNTVYLQMNSLKPEDTAVYYCNGEGYGSSWFDDGKNYWGKGTQVTVSS
binding [1]: binds
binding [2]: binds
